Compound in this assay: Nc1nc2c(ncn2[C@@H]2O[C@H](COP(=O)(O)OP(=O)(O)OP(=O)(O)O)[C@@H](O)[C@H]2O)c(=O)[nH]1 [guanosine triphosphate]
The experiment in a line: NP40-soluble protein abundance relative to vehicle (solubility fold change) (ratio); higher = more soluble protein in presence of GTP. The procedure, abridged:
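Jurkat crude lysate prepared with a Dounce homogeniser was treated at eight concentrations spanning 0.1 to 10 mM, 10 min at room temperature then 3 min at 37 °C. Solubilisation with 0.8% NP40 and benzonase and ultracentrifugation preceded TMT labelling of the supernatant for LC-MS/MS. Fold change against the detergent-processed vehicle was determined per replicate from vsn-normalised intensities, across three independent experiments.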

Amino acid sequences for entries named in this document (tags omitted). A change or cut given only in a name is not applied to a line headed by its entry.
UniProt O95249: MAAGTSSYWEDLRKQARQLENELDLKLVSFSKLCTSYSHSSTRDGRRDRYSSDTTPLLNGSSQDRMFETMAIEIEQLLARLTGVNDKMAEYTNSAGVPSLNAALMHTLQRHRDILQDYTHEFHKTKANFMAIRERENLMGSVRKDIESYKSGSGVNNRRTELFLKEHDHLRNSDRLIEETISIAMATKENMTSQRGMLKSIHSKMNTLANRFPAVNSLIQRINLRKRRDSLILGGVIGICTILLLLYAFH
UniProt P28290: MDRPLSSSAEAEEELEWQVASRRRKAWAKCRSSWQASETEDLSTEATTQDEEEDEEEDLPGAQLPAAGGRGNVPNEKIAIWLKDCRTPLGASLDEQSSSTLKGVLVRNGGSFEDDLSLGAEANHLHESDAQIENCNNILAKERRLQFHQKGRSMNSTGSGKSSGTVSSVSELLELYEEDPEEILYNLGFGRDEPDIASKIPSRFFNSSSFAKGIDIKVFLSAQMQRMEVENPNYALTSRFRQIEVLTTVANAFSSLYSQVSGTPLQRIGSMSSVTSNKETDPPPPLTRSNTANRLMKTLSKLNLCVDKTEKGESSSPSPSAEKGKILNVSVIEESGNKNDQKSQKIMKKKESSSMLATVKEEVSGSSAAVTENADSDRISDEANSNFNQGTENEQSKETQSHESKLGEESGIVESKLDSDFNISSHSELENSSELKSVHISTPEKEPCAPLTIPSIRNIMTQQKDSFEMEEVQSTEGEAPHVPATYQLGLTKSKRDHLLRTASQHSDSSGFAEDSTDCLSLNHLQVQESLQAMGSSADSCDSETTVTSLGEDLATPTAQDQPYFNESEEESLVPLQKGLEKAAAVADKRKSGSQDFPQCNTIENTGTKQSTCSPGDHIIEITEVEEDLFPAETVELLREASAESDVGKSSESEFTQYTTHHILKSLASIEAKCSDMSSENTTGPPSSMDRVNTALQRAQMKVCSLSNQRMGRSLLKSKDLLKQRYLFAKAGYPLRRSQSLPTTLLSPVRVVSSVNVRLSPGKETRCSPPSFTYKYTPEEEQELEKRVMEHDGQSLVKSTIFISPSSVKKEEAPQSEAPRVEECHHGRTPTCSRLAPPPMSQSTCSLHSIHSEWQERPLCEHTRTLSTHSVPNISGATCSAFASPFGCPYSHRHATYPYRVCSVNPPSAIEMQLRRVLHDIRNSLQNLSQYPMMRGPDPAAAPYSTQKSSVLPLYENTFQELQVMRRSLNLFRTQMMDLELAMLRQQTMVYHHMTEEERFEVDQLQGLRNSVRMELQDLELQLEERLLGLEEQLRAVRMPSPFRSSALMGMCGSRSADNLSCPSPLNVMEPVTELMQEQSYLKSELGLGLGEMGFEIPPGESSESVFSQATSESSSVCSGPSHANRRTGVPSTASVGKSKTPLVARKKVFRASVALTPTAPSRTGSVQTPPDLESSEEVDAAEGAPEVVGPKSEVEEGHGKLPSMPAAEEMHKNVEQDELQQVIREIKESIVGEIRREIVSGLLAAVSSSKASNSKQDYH
UniProt Q9BUI4: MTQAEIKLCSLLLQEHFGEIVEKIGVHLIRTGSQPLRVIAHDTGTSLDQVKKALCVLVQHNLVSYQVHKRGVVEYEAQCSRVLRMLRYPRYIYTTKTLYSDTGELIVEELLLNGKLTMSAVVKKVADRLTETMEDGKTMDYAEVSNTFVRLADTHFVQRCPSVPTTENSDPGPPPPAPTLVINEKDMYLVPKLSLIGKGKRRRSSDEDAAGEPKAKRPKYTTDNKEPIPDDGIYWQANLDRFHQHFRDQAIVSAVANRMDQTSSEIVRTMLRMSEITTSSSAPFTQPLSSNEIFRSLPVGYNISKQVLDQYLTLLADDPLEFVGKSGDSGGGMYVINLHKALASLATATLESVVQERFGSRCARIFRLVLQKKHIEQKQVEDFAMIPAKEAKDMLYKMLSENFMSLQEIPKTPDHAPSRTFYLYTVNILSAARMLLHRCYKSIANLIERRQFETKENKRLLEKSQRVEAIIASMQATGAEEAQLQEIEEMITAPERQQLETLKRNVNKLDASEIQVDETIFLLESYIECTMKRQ
UniProt Q567U6, whole entry: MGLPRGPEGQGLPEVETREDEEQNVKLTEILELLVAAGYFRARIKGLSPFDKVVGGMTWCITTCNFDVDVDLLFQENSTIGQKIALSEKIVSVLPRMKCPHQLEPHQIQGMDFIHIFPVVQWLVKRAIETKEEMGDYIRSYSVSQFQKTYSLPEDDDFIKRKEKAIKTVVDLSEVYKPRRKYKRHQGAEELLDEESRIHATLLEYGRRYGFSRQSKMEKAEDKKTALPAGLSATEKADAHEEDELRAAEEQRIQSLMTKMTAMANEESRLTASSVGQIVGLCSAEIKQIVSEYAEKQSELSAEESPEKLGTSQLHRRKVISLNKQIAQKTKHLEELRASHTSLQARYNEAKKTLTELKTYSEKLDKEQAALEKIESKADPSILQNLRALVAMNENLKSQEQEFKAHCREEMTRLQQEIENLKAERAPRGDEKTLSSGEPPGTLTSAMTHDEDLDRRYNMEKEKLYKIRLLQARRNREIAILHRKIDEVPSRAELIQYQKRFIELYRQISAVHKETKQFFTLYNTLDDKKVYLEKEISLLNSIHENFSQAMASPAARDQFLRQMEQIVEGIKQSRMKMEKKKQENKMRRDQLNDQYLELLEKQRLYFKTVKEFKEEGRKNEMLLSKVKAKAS
UniProt P23588, whole entry: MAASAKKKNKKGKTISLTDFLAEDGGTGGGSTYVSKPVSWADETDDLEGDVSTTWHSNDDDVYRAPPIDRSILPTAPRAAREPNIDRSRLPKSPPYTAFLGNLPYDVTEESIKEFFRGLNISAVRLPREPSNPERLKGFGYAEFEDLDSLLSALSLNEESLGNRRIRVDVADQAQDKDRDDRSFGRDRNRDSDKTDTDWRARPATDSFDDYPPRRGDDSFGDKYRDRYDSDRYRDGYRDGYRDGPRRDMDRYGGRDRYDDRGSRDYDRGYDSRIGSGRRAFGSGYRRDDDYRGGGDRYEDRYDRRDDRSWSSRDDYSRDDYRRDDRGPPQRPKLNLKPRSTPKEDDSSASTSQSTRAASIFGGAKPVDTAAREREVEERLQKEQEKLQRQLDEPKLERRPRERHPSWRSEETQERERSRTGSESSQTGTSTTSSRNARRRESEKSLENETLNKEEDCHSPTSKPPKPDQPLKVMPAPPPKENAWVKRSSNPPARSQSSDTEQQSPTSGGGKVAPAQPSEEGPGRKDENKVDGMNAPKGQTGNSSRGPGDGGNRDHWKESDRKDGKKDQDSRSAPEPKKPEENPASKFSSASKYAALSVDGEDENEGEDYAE
UniProt P61224: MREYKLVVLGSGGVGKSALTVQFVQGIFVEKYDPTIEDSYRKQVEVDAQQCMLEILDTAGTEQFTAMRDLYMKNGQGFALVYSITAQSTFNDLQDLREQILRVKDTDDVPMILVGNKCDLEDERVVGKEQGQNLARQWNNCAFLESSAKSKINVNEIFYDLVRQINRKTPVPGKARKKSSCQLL
UniProt Q96KG9: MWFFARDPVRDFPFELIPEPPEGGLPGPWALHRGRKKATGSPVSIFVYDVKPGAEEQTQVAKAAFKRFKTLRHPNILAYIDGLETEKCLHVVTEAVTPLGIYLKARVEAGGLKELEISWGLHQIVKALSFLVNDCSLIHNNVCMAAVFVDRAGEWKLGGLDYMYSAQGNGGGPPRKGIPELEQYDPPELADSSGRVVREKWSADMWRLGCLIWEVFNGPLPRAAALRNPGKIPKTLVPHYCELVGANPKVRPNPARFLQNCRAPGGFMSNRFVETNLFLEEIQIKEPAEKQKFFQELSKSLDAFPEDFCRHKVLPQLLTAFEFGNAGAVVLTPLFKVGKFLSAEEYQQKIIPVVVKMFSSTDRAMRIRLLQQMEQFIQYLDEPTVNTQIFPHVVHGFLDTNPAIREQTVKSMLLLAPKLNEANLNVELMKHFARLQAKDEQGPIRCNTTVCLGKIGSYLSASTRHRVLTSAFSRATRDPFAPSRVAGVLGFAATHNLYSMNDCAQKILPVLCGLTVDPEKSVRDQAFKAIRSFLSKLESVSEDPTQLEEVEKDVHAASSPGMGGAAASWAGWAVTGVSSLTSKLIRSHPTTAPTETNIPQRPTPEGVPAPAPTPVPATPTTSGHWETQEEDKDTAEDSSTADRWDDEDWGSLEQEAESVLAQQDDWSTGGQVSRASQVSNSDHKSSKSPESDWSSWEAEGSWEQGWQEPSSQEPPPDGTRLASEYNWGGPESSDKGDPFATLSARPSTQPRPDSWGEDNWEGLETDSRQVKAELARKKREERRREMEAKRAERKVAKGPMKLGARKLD
UniProt Q15436: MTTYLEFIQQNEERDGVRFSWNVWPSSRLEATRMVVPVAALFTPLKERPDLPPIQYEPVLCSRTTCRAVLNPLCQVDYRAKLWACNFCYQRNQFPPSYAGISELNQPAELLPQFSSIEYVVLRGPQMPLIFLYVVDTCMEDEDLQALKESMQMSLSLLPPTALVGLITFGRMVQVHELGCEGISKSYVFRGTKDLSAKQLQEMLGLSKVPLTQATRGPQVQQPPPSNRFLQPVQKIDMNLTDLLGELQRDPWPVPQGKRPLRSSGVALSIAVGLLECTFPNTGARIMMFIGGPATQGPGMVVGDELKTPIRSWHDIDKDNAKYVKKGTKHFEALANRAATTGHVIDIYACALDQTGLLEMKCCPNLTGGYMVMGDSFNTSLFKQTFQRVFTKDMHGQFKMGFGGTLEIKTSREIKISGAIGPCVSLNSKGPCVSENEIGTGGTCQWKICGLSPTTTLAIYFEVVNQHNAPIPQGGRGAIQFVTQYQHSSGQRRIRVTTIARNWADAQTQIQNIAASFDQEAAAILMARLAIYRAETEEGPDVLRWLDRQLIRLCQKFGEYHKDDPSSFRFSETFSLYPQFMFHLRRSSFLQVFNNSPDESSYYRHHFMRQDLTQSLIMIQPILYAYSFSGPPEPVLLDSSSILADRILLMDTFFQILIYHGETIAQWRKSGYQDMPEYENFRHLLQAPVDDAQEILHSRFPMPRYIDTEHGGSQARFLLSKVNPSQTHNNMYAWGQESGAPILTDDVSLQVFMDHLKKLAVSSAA
UniProt P60900, whole entry: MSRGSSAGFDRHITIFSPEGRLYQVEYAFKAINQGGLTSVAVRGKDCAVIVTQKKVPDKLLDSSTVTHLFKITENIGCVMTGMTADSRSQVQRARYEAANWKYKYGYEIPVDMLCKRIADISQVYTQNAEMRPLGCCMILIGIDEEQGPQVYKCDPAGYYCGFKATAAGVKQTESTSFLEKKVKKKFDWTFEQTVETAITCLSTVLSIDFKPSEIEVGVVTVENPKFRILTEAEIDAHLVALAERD
UniProt P25208: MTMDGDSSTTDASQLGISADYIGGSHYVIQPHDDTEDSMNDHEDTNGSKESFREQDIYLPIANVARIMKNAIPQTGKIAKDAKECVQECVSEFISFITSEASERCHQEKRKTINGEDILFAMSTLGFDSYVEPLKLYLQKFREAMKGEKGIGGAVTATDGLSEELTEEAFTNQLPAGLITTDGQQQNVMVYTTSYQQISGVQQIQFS
UniProt Q9GZR7: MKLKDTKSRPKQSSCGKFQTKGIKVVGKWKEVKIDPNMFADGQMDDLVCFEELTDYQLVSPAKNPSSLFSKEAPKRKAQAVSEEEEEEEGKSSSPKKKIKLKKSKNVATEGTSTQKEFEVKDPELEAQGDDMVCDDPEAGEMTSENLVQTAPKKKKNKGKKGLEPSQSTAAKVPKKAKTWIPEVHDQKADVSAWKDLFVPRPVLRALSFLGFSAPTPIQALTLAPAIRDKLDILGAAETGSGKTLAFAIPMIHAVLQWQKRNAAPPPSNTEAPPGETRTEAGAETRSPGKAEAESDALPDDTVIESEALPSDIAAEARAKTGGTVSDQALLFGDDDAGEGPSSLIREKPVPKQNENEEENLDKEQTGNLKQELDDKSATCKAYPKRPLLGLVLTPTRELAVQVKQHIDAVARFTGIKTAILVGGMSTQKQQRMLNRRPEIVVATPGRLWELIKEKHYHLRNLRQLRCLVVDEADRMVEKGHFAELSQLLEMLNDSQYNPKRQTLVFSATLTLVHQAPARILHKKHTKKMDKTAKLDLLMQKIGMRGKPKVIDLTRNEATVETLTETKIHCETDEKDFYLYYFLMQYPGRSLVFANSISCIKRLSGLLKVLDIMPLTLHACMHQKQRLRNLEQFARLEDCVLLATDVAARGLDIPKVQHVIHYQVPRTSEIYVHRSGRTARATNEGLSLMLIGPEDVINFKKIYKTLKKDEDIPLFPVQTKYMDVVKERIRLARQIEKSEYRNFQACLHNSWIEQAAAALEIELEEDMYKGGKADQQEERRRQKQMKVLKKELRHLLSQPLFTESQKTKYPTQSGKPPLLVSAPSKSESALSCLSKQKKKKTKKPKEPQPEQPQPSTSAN

These results are taken from the supplement of paper PMC6411743.

± gives the standard deviation of the averaged measurements. The list shows a part of the results.

As to “E9PCW1 and related entries (UniProt O95249)”, the NP40-soluble protein abundance (concentration: 0.1mM) amounted to 0.877 ± 0.026; the NP40-soluble protein abundance (concentration: 0.5mM) was found to be 0.954 ± 0.029; the NP40-soluble protein abundance (concentration: 1mM) amounted to 0.961 ± 0.004; the NP40-soluble protein abundance (concentration: 2mM) is 0.979 ± 0.053; the NP40-soluble protein abundance (concentration: 4mM) came to 0.924 ± 0.028; the NP40-soluble protein abundance (concentration: 6mM) was 1.01 ± 0.067. Moreover, the NP40-soluble protein abundance by setting is: (concentration: 8mM) 0.945 ± 0.052; (concentration: 10mM) 0.97 ± 0.034.

For the target “E7EUL7 and related entries (UniProt P28290)”, the NP40-soluble protein abundance is, setting by setting: (concentration: 0.1mM) 1.11 ± 0.24; (concentration: 0.5mM) 1.18 ± 0.27; (concentration: 1mM) 1.14 ± 0.2; (concentration: 2mM) 1.11 ± 0.062; (concentration: 4mM) 1.32 ± 0.36; (concentration: 6mM) 1.32 ± 0.37. The NP40-soluble protein abundance runs as follows: (concentration: 8mM) 1.45 ± 0.37; (concentration: 10mM) 1.39 ± 0.28.

In the case of “E9PHH9 and related entries (UniProt Q9BUI4)”, the NP40-soluble protein abundance by setting is: (concentration: 0.1mM) 1.05 ± 0.019; (concentration: 0.5mM) 1.01 ± 0.019; (concentration: 1mM) 1.05 ± 0.042; (concentration: 2mM) 1.07 ± 0.1; (concentration: 4mM) 1.12 ± 0.041; (concentration: 6mM) 1.02 ± 0.1. The NP40-soluble protein abundance reads like this: (concentration: 8mM) 1.04 ± 0.044; (concentration: 10mM) 0.994 ± 0.056.

On to “F8W9X7 and related entries (UniProt Q567U6)”, for which the NP40-soluble protein abundance is, setting by setting: (concentration: 0.1mM) 0.995 ± 0.033; (concentration: 0.5mM) 1.01 ± 0.037; (concentration: 1mM) 0.986 ± 0.036; (concentration: 2mM) 0.979 ± 0.047; (concentration: 4mM) 1 ± 0.026; (concentration: 6mM) 0.986 ± 0.071. In addition, the NP40-soluble protein abundance (concentration: 8mM) turned out to be 1.01 ± 0.074 and the NP40-soluble protein abundance (concentration: 10mM) was determined as 0.984 ± 0.054.

For “E7EX17 and related entries (UniProt P23588)”, the NP40-soluble protein abundance is, setting by setting: (concentration: 0.1mM) 0.941 ± 0.1; (concentration: 0.5mM) 0.941 ± 0.12; (concentration: 1mM) 0.994 ± 0.11; (concentration: 2mM) 0.936 ± 0.15; (concentration: 4mM) 0.958 ± 0.13; (concentration: 6mM) 1 ± 0.12. The NP40-soluble protein abundance reads like this: (concentration: 8mM) 1.08 ± 0.092; (concentration: 10mM) 1.06 ± 0.12.

With “F5GZG1 and related entries (UniProt P61224)”, the NP40-soluble protein abundance came to 0.897 ± 0.16 (concentration: 0.1mM); 0.931 ± 0.16 (concentration: 0.5mM); 0.884 ± 0.14 (concentration: 1mM); 0.848 ± 0.14 (concentration: 2mM); 0.88 ± 0.14 (concentration: 4mM); 0.869 ± 0.14 (concentration: 6mM). Moreover, the NP40-soluble protein abundance (concentration: 8mM) is 0.885 ± 0.15 and the NP40-soluble protein abundance (concentration: 10mM) came to 0.907 ± 0.17.

“E7EVQ6 and related entries (UniProt Q14534)”: the NP40-soluble protein abundance (concentration: 0.1mM) came to 1.14 ± 0.16; the NP40-soluble protein abundance (concentration: 0.5mM) amounted to 1.15 ± 0.12; the NP40-soluble protein abundance (concentration: 1mM) is 1.03 ± 0.034; the NP40-soluble protein abundance (concentration: 2mM) came out at 1.1 ± 0.12; the NP40-soluble protein abundance (concentration: 4mM) was found to be 1.05 ± 0.062; the NP40-soluble protein abundance (concentration: 6mM) was 0.973 ± 0.053. Besides, the NP40-soluble protein abundance by setting is: (concentration: 8mM) 1.02 ± 0.2; (concentration: 10mM) 0.983 ± 0.15.

For “E9PPN3 and related entries (UniProt Q96KG9)”, the NP40-soluble protein abundance runs as follows: (concentration: 0.1mM) 1.035 ± 0.0018; (concentration: 0.5mM) 1.04 ± 0.029; (concentration: 1mM) 0.964 ± 0.017; (concentration: 2mM) 0.987 ± 0.041; (concentration: 4mM) 0.988 ± 0.028; (concentration: 6mM) 1 ± 0.028. Also, the NP40-soluble protein abundance by setting is: (concentration: 8mM) 0.966 ± 0.036; (concentration: 10mM) 0.928 ± 0.0099.

For the target “E9PF16 and related entries (UniProt Q96CM8)”, the NP40-soluble protein abundance is, setting by setting: (concentration: 0.1mM) 1.06 ± 0.054; (concentration: 0.5mM) 1.03 ± 0.059; (concentration: 1mM) 0.9887 ± 0.0092; (concentration: 2mM) 0.943 ± 0.057; (concentration: 4mM) 0.965 ± 0.055; (concentration: 6mM) 0.92 ± 0.024. Also, the NP40-soluble protein abundance by setting is: (concentration: 8mM) 0.924 ± 0.027; (concentration: 10mM) 0.89 ± 0.018.

As for “F5H365 and related entries (UniProt Q15436)”, the NP40-soluble protein abundance (concentration: 0.1mM) is 1.02 ± 0.012; the NP40-soluble protein abundance (concentration: 0.5mM) amounted to 1.03 ± 0.047; the NP40-soluble protein abundance (concentration: 1mM) is 0.959 ± 0.028; the NP40-soluble protein abundance (concentration: 2mM) was found to be 0.978 ± 0.038; the NP40-soluble protein abundance (concentration: 4mM) is 0.996 ± 0.033; the NP40-soluble protein abundance (concentration: 6mM) worked out at 0.963 ± 0.054. Moreover, the NP40-soluble protein abundance (concentration: 8mM) was determined as 0.93 ± 0.038 and the NP40-soluble protein abundance (concentration: 10mM) amounted to 0.906 ± 0.022.

Regarding “G3V5Z7 and related entries (UniProt P60900)”, the NP40-soluble protein abundance was 1.03 ± 0.082 (concentration: 0.1mM); 1.09 ± 0.15 (concentration: 0.5mM); 1.03 ± 0.13 (concentration: 1mM); 1.07 ± 0.19 (concentration: 2mM); 1.08 ± 0.17 (concentration: 4mM); 1.1 ± 0.21 (concentration: 6mM). Moreover, the NP40-soluble protein abundance is, setting by setting: (concentration: 8mM) 1.06 ± 0.16; (concentration: 10mM) 1.02 ± 0.17.

As to “F8VSL3 and related entries (UniProt P25208)”, the NP40-soluble protein abundance was determined as 0.877 ± 0.072 (concentration: 0.1mM); 0.852 ± 0.035 (concentration: 0.5mM); 0.895 ± 0.079 (concentration: 1mM); 0.827 ± 0.13 (concentration: 2mM); 0.774 ± 0.077 (concentration: 4mM); 0.848 ± 0.099 (concentration: 6mM). Also, the NP40-soluble protein abundance (concentration: 8mM) was 0.866 ± 0.046 and the NP40-soluble protein abundance (concentration: 10mM) amounted to 0.859 ± 0.11.

As to “G3V529 and related entries (UniProt Q9GZR7)”, the NP40-soluble protein abundance is, setting by setting: (concentration: 0.1mM) 0.996 ± 0.024; (concentration: 0.5mM) 1.01 ± 0.019; (concentration: 1mM) 0.978 ± 0.037; (concentration: 2mM) 0.962 ± 0.012; (concentration: 4mM) 0.968 ± 0.032; (concentration: 6mM) 0.984 ± 0.015. Besides, the NP40-soluble protein abundance runs as follows: (concentration: 8mM) 0.993 ± 0.053; (concentration: 10mM) 1.03 ± 0.051.
